# Results from one PubChem assay

Source: PubChem BioAssay AID1053133 (Broad Institute, 2014).

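Plate-reader measure of the Venus reporter marking one vaccinia stage in infected cells (the cell line is not named here); read time unknown. The test concentration is not given here. Percent change in Venus reporter signal; lower (more negative) values mean stronger inhibition of that viral stage.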

Values are in %. How 0% and 100% were set is not given here. Common to all entries: measured here: Venus reporter, other viral stage. Part of the compounds only, not a random draw; the main read-out is not listed here.

| # | Compound | activity change (Venus) (%) |
|---|---|---|
| 1 | `C[C@@H]1CCCCO[C@@H](CN(C)S(=O)(=O)c2ccccc2)[C@H](C)CN([C@H](C)CO)C(=O)c2cc(NC(=O)c3ccccc3)ccc2O1` | -38.34 |
| 2 | `CC(C)CC#Cc1ccc2c(c1)O[C@H](CN(C)C)[C@@H](C)CN([C@H](C)CO)S2(=O)=O` | -44.99 |
| 3 | `C[C@@H]1CCCCO[C@H](CN(C)C(=O)C2CCCCC2)[C@H](C)CN([C@H](C)CO)C(=O)c2cc(NC(=O)NC3CCCCC3)ccc2O1` | -59.59 |
| 4 | `C[C@H](CO)N1C[C@H](C)[C@H](CN(C)C(=O)CN(C)C)Oc2cc(C#CCC3CCCC3)ccc2S1(=O)=O` | -67.03 |
| 5 | `C[C@H]1CN([C@@H](C)CO)C(=O)c2cc(-c3cncnc3)cnc2O[C@@H]1CN(C)Cc1ccc(Oc2ccccc2)cc1` | -40.65 |
| 6 | `O=C(C[C@@H]1C[C@H]2c3cc(NC(=O)Nc4ccccc4F)ccc3O[C@H]2[C@H](CO)O1)NCc1cc(F)ccc1F` | -7.345 |
| 7 | `C[C@H](CO)N1C[C@H](C)[C@H](CN(C)Cc2ccc(-c3ccccc3)cc2)OCc2cnnn2CCCC1=O` | -51.75 |
| 8 | `COc1cccc(CN2CCC3(CC2)CN(C(=O)C2CC2)[C@H](CO)c2[nH]c4cc(OC)ccc4c23)c1` | -38.17 |
| 9 | `O=C(Cc1cccnc1)N1CC(=O)N2[C@@H](CO)[C@@H](c3ccc(C#CC4CCCC4)cc3)[C@@H]2C1` | -25.52 |
| 10 | `N#Cc1cccc(-c2ccc3c(c2)[C@H]2[C@H](CCN2Cc2ccncc2)[C@H](CO)N3)c1` | -56.28 |
| 11 | `O=C(C[C@H]1C[C@@H]2c3cc(NS(=O)(=O)c4ccc(F)cc4)ccc3O[C@@H]2[C@@H](CO)O1)NCc1ccc(Oc2ccccc2)cc1` | -85.64 |
| 12 | `CS(=O)(=O)N1[C@H](CO)[C@@H](c2ccc(-c3ccccc3F)cc2)[C@@H]1C#N` | -48.75 |
| 13 | `Cc1ccc(S(=O)(=O)Nc2ccc3c(c2)C(=O)N([C@@H](C)CO)C[C@H](C)[C@@H](CN(C)C(=O)NC2CCCCC2)OCCCC[C@H](C)O3)cc1` | -50.89 |
| 14 | `CN1CCN(C(=O)C[C@@H]2CC[C@@H]3[C@H](COC[C@@H](O)CN3Cc3ccc(Oc4ccccc4)cc3)O2)CC1` | -36.29 |
| 15 | `O=C(C1CCC1)N1CC(=O)N2[C@@H](CO)[C@@H](c3ccc(C#Cc4cccc(F)c4)cc3)[C@@H]2C1` | -91.86 |
| 16 | `COc1cccc(S(=O)(=O)Nc2ccc3c(c2)[C@@H]2C[C@@H](CC(=O)NCc4ccccc4F)O[C@@H](CO)[C@@H]2O3)c1` | -52.91 |
| 17 | `COc1ccccc1C#Cc1ccc2c(c1)O[C@H](CN(C)Cc1cncnc1)[C@@H](C)CN([C@@H](C)CO)S2(=O)=O` | -30.28 |
| 18 | `N#C[C@@H]1[C@@H](c2ccccc2-c2ccc(F)cc2)[C@H](CO)N1C(=O)Cc1ccccc1` | -39.08 |
| 19 | `Cc1ccc(S(=O)(=O)N(C)C[C@H]2Oc3cc(C4=CCCC4)ccc3S(=O)(=O)N([C@@H](C)CO)C[C@H]2C)cc1` | -23.1 |
| 20 | `O=C1CN(S(=O)(=O)Cc2ccccc2)C[C@@H]2[C@H](c3ccc(C#Cc4ccc(F)cc4)cc3)[C@H](CO)N12` | -30.55 |
| 21 | `COc1cccc(-c2ccc(C3[C@@H]4CN(C(=O)C5CCCCC5)C[C@H]3N4)cc2)c1` (stereo not given in full) | -65.79 |
| 22 | `O=C(Nc1ccccc1)N1CCCCN2[C@H](CO)[C@@H](c3ccc(C#Cc4ccccc4)cc3)[C@H]2C1` | -58.48 |
| 23 | `C[C@@H]1CN([C@H](C)CO)C(=O)c2cccc(NC(=O)Nc3ccc(C(F)(F)F)cc3)c2O[C@@H]1CN(C)Cc1ccc(C(F)(F)F)cc1` | -49.18 |
| 24 | `C[C@H]1CCCCO[C@H](CN(C)S(=O)(=O)c2ccccc2)[C@@H](C)CN([C@@H](C)CO)C(=O)c2cc(NC(=O)NC3CCCCC3)ccc2O1` | -24.76 |
| 25 | `C[C@@H]1CN([C@@H](C)CO)C(=O)c2cccc(NS(=O)(=O)c3cccs3)c2O[C@H]1CN(C)Cc1ccc(-c2ccccc2)cc1` | -29.43 |
| 26 | `Cc1noc(C)c1S(=O)(=O)Nc1ccc2c(c1)C(=O)N([C@@H](C)CO)C[C@@H](C)[C@H](CN(C)S(=O)(=O)c1ccc(Cl)cc1)OCCCC[C@H](C)O2` | -25.34 |
| 27 | `C[C@@H]1CN([C@@H](C)CO)C(=O)c2cc(NS(=O)(=O)c3ccccc3)ccc2O[C@@H](C)CCCCO[C@@H]1CN(C)Cc1ccccc1` | -47.9 |
| 28 | `O=C(Nc1ccc(F)cc1)N1CCCCN2[C@H](C1)[C@H](c1ccc(-c3ccccc3F)cc1)[C@@H]2CO` | -27.28 |
| 29 | `C[C@@H]1CCCCO[C@@H](CN(C)CC2CCCCC2)[C@H](C)CN([C@H](C)CO)C(=O)c2cc(NS(=O)(=O)c3cccs3)ccc2O1` | -57.57 |
| 30 | `Cc1ccccc1-c1ccc([C@H]2[C@@H](CO)N3CCCCN(S(=O)(=O)c4ccc(F)cc4)C[C@H]23)cc1` | -36 |
| 31 | `COCC(=O)N(C)C[C@@H]1Oc2cc(C#CCC3CCCC3)ccc2S(=O)(=O)N([C@@H](C)CO)C[C@@H]1C` | -47.02 |
| 32 | `Cc1ccccc1-c1ccc(C2[C@@H]3CN(S(=O)(=O)c4ccccc4C)C[C@H]2N3)cc1` (stereo not given in full) | -85.8 |
| 33 | `CN1c2ccc(-c3ccccc3)cc2[C@@H]2[C@@H](CCN2C(=O)c2ccc(F)cc2)[C@@H]1CO` | -33.76 |
| 34 | `C[C@H]1CN([C@@H](C)CO)S(=O)(=O)c2ccc(-c3ccccc3F)cc2O[C@H]1CN(C)Cc1cccnc1` | -35.82 |
| 35 | `COc1ccc(CN(C)C[C@H]2OCCCC[C@H](C)Oc3ccc(NC(=O)CCC(F)(F)F)cc3C(=O)N([C@H](C)CO)C[C@H]2C)cc1` | -29.67 |
| 36 | `C[C@H](CO)N1C[C@H](C)[C@H](CN(C)S(=O)(=O)c2cn(C)cn2)Oc2cc(C#Cc3ccc(F)cc3)ccc2S1(=O)=O` | -67.74 |
| 37 | `C[C@H]1CN([C@@H](C)CO)C(=O)c2cccc(NC(=O)Nc3ccc(F)cc3)c2O[C@H]1CN(C)C(=O)Nc1ccc(F)cc1` | -44.64 |
| 38 | `CC(C)CC#Cc1ccc2c(c1)O[C@H](CN(C)Cc1ccncc1)[C@H](C)CN([C@H](C)CO)S2(=O)=O` | -46.38 |
| 39 | `COc1ccccc1-c1ccc([C@H]2[C@@H](C#N)N(C(=O)C3CCC3)[C@H]2CO)cc1` | -22.65 |
| 40 | `C[C@H](CO)N1C[C@H](C)[C@@H](CN(C)Cc2ccccn2)Oc2cc(C3=CCCCC3)ccc2S1(=O)=O` | -71.68 |
| 41 | `COc1ccc([Si](C)(C)[C@@H]2[C@@H](CCn3cc(CCO)nn3)O[C@]3(C(=O)N(Cc4cccc(N5CCOC5=O)c4)c4ccccc43)[C@H]2C)cc1` | -72.05 |
| 42 | `CO[C@@H](CN(C)C(=O)Nc1ccc(C(F)(F)F)cc1)[C@@H](C)CN(Cc1ccccc1Cl)[C@@H](C)CO` | -39.45 |
| 43 | `C[C@H](CO)N1C[C@H](C)[C@H](CN(C)C(=O)Nc2ccc3c(c2)OCO3)OCc2ccccc2-c2c(n(C)c3ccccc23)C1=O` | -27.01 |
| 44 | `OC[C@H]1[C@H](c2ccc(C#Cc3ccccc3F)cc2)[C@@H]2CN(CC3CCOCC3)CCCCN12` | -63.16 |
| 45 | `N#C[C@H]1[C@H](c2ccc(-c3ccc(F)cc3)cc2)[C@@H](CO)N1C(=O)Cc1ccccc1` | -50.13 |
| 46 | `COc1cccc(S(=O)(=O)Nc2ccc3c(c2)OC[C@@H](C)N(Cc2cc(F)ccc2F)C[C@@H](C)[C@H](OC)CN(C)C3=O)c1` | -21.66 |
| 47 | `COc1ccc(S(=O)(=O)Nc2ccc3c(c2)CC(=O)N([C@@H](C)CO)C[C@H](C)[C@@H](CN(C)Cc2ccc(Cl)c(Cl)c2)O3)cc1` | -26.83 |
| 48 | `CO[C@@H]1CN(C)C(=O)c2cc(NC(=O)NC3CCCCC3)ccc2OC[C@@H](C)N(CCc2ccccc2)C[C@@H]1C` | -31.16 |
| 49 | `C[C@@H]1CN([C@@H](C)CO)C(=O)CCCn2nncc2CO[C@@H]1CN(C)Cc1ccc(Cl)c(Cl)c1` | -48.16 |
| 50 | `O=C(NC1CCCCC1)N1CC(=O)N2[C@H](CO)[C@H](c3ccc(/C=C/c4ccccc4)cc3)[C@@H]2C1` | -50.53 |
| 51 | `CC(=O)N(C)C[C@@H]1Oc2cc(C#CC3CCCCC3)ccc2S(=O)(=O)N([C@@H](C)CO)C[C@@H]1C` | -32.84 |
| 52 | `COc1ccc(CN(C)C[C@@H]2OCCCC[C@H](C)Oc3ccc(NS(=O)(=O)c4ccc(C)cc4)cc3C(=O)N([C@H](C)CO)C[C@@H]2C)cc1` | -56.55 |
| 53 | `C[C@H](CO)N1C[C@H](C)[C@H](CN(C)S(=O)(=O)c2ccc(Cl)cc2)Oc2c(NC(=O)c3ccc(-c4nccs4)cc3)cccc2C1=O` | -17.4 |

The last 3 entries again:

Result for CC(=O)N(C)C[C@@H]1Oc2cc(C#CC3CCCCC3)ccc2S(=O)(=O)N([C@@H](C)CO)C[C@@H]1C was activity change (Venus) -32.84%.
Result for COc1ccc(CN(C)C[C@@H]2OCCCC[C@H](C)Oc3ccc(NS(=O)(=O)c4ccc(C)cc4)cc3C(=O)N([C@H](C)CO)C[C@@H]2C)cc1 was activity change (Venus) -56.55%.
Result for C[C@H](CO)N1C[C@H](C)[C@H](CN(C)S(=O)(=O)c2ccc(Cl)cc2)Oc2c(NC(=O)c3ccc(-c4nccs4)cc3)cccc2C1=O was activity change (Venus) -17.4%.